Source: patent publication US20190024099
Construct, isoform or probe ends are uncertain for at least one entry. Tags and fusion partners may be left off the protein sequences shown.

System: T1, Rci shufflon recombinase
T1 sequence: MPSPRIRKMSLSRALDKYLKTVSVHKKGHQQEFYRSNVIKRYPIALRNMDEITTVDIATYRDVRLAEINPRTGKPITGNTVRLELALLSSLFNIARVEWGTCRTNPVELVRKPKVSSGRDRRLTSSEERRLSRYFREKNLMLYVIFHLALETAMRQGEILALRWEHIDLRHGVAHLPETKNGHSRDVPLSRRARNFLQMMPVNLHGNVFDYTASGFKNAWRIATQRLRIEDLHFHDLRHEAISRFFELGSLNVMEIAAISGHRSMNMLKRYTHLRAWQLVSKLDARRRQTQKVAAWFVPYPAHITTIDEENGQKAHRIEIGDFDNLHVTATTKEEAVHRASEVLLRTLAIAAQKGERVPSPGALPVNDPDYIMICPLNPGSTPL
Experiment: activity in cells
Conditions: S. venezuelae, 1 kb inter-site, probe qPCR averaged over time points, high variability, protein in cells, only the site is given

## GTGCCAATCCGGTACCTGG (double strand) [sfx recognition sequence b]
5 kb 24, 10 kb 26, SYBR method 1 kb 2
  activity on this sequence: 12 % flipped

## GTGCCAATCCGGTACGTGG (double strand) [sfx recognition sequence a]
5 kb 28, 10 kb 55, SYBR method 1 kb 2
  activity on this sequence: 50 % flipped

## GTGCCAATCCGGTACTTGG (double strand) [sfx recognition sequence d]
5 kb 33, 10 kb 56, SYBR method 1 kb 0.01
  activity on this sequence: 78 % flipped

## GTGCCAATCCGGTCGGTGG (double strand) [sfx recognition sequence c]
5 kb 44, 10 kb 56, SYBR method 1 kb 33
  activity on this sequence: 33 % flipped
